# Experimental data reported in article doi:10.1101/260083.
# By UniProt entry, the sequences of proteins in these tests, tags left out. Where a name states a change or a piece, a line headed by the entry shows the natural chain unless it says otherwise. Residues count along the entry.
# UniProt Q8N2Q7, 46-863: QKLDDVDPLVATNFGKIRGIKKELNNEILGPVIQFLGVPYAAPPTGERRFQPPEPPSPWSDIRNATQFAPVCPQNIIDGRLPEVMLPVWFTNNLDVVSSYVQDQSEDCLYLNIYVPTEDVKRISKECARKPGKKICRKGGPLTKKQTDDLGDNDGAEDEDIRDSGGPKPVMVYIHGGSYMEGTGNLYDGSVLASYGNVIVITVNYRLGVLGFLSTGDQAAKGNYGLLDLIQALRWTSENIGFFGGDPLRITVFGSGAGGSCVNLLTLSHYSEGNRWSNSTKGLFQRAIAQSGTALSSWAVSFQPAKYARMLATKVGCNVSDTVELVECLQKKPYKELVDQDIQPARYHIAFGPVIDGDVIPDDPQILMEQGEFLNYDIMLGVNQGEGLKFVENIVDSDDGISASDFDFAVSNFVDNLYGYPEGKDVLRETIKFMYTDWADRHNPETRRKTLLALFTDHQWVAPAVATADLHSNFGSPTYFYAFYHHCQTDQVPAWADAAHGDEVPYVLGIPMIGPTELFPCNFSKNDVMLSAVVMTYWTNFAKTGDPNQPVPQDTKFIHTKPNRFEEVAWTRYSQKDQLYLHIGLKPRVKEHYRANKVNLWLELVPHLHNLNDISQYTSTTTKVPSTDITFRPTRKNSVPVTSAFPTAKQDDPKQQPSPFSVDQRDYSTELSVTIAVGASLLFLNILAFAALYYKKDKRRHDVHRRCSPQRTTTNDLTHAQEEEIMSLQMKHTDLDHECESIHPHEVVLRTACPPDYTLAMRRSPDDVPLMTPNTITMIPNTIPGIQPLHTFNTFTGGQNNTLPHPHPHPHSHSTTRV
# UniProt Q8NFZ4, 15-835: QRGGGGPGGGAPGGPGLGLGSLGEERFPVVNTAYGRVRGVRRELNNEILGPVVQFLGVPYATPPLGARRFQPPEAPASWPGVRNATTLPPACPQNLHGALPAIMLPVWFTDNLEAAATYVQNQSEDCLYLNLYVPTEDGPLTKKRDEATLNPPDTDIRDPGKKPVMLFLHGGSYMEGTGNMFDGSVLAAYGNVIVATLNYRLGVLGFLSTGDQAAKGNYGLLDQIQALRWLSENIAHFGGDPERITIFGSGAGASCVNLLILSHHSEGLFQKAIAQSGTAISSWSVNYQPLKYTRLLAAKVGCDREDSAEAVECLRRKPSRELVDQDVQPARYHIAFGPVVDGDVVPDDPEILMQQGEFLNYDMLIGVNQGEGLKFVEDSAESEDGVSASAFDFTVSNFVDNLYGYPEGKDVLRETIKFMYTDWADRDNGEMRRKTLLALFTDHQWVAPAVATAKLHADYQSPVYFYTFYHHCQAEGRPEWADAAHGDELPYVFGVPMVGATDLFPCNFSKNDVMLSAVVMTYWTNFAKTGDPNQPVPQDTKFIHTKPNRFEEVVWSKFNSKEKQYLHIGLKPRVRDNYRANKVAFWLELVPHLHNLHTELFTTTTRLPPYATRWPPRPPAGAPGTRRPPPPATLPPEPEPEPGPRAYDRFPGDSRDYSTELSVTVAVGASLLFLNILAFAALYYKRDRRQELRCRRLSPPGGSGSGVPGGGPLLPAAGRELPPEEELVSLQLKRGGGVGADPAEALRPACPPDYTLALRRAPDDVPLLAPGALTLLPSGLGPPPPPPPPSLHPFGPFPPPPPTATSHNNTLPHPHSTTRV
# UniProt Q9BYB0, whole entry: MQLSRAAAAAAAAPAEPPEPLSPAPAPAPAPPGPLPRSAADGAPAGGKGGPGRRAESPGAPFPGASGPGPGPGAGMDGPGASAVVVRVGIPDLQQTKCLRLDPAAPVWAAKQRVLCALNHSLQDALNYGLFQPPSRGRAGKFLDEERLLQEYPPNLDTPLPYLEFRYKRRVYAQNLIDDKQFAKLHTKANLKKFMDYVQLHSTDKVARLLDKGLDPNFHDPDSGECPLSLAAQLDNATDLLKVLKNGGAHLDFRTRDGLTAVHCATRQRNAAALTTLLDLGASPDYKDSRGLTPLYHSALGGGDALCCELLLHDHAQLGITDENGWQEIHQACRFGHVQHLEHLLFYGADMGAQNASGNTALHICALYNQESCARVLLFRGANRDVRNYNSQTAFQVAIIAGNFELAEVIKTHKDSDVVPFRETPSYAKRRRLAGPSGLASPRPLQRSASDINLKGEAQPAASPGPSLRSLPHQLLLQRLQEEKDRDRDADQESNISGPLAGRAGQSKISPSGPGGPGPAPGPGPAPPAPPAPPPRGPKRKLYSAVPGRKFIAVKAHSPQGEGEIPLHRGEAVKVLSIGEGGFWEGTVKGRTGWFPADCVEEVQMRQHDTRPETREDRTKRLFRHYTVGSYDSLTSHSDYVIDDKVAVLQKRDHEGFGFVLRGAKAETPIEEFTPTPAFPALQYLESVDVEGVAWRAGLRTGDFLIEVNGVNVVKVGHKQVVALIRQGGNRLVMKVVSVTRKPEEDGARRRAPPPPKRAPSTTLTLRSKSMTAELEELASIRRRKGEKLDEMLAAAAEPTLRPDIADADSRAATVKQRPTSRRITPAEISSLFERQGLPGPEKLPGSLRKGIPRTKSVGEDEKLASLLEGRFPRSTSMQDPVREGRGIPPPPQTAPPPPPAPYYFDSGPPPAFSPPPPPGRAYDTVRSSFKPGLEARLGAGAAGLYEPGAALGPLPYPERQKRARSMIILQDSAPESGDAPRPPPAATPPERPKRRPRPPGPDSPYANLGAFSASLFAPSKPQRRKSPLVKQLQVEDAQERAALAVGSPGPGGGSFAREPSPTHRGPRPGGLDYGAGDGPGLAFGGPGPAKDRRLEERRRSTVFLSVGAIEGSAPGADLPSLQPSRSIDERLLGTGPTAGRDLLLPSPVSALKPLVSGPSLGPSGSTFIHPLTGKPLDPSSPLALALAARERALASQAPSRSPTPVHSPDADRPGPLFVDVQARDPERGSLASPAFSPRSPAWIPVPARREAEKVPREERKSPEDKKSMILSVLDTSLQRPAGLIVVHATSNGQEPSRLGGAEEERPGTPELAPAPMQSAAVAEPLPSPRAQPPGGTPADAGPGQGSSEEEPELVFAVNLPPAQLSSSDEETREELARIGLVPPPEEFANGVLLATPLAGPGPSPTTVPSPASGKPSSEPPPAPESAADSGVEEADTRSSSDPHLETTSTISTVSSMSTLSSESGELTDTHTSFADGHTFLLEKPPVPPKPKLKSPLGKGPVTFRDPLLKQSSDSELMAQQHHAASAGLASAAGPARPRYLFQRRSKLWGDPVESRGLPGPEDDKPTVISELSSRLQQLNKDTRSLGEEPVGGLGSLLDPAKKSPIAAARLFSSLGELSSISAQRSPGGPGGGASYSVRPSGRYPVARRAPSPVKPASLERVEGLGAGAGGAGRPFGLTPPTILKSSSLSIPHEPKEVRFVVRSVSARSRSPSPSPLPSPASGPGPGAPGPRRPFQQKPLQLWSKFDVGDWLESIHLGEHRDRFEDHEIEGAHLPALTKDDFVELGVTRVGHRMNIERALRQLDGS
# Results are given in words; binding and its absence hold for the method and conditions named. Binding seen in cells or lysates may run through a third protein. Some binding calls cover weakened binding; strength is not graded here. Sequences can lack the tags named with a protein.
# T1: myc-CNTNAP3 (full-length human CNTNAP3) (human) (UniProt Q9BZ76)
# T1 sequence: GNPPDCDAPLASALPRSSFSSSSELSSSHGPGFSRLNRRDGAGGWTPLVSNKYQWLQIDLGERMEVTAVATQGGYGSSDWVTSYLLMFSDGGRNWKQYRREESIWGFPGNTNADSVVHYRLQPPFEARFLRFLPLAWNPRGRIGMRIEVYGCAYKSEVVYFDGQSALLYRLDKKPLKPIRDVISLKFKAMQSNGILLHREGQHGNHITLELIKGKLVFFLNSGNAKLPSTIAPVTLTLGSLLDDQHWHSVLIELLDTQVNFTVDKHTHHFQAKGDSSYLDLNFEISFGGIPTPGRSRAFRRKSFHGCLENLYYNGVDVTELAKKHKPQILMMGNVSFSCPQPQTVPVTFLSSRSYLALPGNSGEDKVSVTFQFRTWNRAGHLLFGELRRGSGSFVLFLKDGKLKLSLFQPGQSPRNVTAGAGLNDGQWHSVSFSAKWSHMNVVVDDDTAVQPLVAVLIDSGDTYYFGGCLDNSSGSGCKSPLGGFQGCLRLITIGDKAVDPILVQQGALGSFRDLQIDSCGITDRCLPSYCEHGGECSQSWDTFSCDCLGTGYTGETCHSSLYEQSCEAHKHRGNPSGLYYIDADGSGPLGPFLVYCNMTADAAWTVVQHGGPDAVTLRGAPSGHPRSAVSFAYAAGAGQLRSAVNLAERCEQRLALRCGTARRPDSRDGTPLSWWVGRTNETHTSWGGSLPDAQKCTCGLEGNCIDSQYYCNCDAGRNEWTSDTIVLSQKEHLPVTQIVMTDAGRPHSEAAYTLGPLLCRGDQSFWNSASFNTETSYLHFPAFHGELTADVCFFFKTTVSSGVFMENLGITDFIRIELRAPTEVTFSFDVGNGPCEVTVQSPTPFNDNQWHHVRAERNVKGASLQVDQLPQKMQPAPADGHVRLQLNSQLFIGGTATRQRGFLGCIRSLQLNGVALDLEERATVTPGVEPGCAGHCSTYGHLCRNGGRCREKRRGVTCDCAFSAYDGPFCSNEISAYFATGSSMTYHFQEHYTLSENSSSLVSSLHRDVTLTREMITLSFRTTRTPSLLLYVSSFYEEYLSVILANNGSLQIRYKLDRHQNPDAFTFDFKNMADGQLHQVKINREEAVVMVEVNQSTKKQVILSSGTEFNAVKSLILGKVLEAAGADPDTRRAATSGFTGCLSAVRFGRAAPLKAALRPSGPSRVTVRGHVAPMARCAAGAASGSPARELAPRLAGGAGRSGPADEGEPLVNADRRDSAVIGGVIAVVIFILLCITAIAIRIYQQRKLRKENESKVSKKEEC
# T2: myc-R1219X (CNTNAP3 R1219X) (human) (UniProt Q9BZ76)
# T2 sequence: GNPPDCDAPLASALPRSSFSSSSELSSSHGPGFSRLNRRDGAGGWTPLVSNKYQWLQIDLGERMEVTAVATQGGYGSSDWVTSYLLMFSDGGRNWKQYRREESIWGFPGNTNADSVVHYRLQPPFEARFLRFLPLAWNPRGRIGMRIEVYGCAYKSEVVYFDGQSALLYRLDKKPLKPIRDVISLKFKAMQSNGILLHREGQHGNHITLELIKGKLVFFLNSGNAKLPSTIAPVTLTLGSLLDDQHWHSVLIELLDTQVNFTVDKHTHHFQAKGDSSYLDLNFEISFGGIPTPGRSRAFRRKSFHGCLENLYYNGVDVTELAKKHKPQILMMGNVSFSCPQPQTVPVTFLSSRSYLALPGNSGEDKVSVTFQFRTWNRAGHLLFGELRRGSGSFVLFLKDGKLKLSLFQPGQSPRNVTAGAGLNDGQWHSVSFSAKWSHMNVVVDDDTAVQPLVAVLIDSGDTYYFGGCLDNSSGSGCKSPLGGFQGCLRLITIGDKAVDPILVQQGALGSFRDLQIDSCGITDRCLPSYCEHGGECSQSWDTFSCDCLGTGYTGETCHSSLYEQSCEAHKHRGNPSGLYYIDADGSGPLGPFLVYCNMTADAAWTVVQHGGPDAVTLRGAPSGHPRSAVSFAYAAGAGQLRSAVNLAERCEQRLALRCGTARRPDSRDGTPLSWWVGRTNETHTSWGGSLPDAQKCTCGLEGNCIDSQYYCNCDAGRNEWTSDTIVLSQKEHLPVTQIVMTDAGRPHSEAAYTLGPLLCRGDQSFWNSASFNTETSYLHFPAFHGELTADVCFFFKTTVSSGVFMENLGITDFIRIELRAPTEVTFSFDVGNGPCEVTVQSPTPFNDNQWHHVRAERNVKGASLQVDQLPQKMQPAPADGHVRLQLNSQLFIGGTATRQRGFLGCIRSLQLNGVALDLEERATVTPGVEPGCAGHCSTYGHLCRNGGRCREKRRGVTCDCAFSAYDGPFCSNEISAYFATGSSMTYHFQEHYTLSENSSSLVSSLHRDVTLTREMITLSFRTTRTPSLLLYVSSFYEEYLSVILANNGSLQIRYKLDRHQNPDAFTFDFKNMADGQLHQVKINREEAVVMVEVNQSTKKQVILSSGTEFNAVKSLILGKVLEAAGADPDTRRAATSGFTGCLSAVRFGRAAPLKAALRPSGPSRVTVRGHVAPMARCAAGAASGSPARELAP
# Experiments:
# [1] = target: T1, myc-CNTNAP3 (full-length human CNTNAP3) (human); assay: co-IP
# [2] = target: T2, myc-R1219X (CNTNAP3 R1219X) (human); assay: co-IP
Molecule,binding [1],binding [2]
HA-NLGN1 (Neuroligin1) (from UniProt Q8N2Q7 46-863),binds,
HA-NLGN2 (Neuroligin 2) (from UniProt Q8NFZ4 15-835),binds,

# Other lines, results leading:
binding [1],binding [2],Molecule
no binding,,SHANK3 (from UniProt Q9BYB0 1-1806)
binds,no binding,"GFP-Gephyrin (protein, UniProt Q9NQX3 1-736) MATEGMILTNHDHQIRVGVLTVSDSCFRNLAEDRSGINLKDLVQDPSLLGGTISAYKIVPDEIEEIKETLIDWCDEKELNLILTTGGTGFAPRDVTPEATKEVIEREAPGMALAMLMGSLNVTPLGMLSRPVCGIRGKTLIINLPGSKKGSQECFQFILPALPHAIDLLRDAIVKVKEVHDELEDLPSPPPPLSPPPTTSPHKQTEDKGVQCEEEEEEKKDSGVASTEDSSSSHITAAAIAAKIPDSIISRGVQVLPRDTASLSTTPSESPRAQATSRLSTASCPTPKVQSRCSSKENILRASHSAVDITKVARRHRMSPFPLTSMDKAFITVLEMTPVLGTEIINYRDGMGRVLAQDVYAKDNLPPFPASVKDGYAVRAADGPGDRFIIGESQAGEQPTQTVMPGQVMRVTTGAPIPCGADAVVQVEDTELIRESDDGTEELEVRILVQARPGQDIRPIGHDIKRGECVLAKGTHMGPSEIGLLATVGVTEVEVNKFPVVAVMSTGNELLNPEDDLLPGKIRDSNRSTLLATIQEHGYPTINLGIVGDNPDDLLNALNEGISRADVIITSGGVSMGEKDYLKQVLDIDLHAQIHFGRVFMKPGLPTTFATLDIDGVRKIIFALPGNPVSAVVTCNLFVVPALRKMQGILDPRPTIIKARLSCDVKLDPRPEYHRCILTWHHQEPLPWAQSTGNQMSSRLMSMRSANGLLMLPPKTEQYVELHKGEVVDVMVIGRL"
